No constants are given. Whether binding was seen depends on the method and setting. In cells and extracts the contact can be indirect. A result given as binding can be weak or reduced; the word gives no strength.
Assays:
Flag-Smad2 = Flag-Smad2 (UniProt Q15796); test: co-IP; lysate of late gastrula Xenopus laevis embryos co-injected with RNA of the Myc-tagged construct and of the Flag-tagged Smad; precipitated with anti-Flag and Dynabeads Protein G, blot with anti-Myc; lysis buffer 150 mM NaCl, 20 mM Tris pH 7.5, 1% Nonidet P-40, 1 mM EDTA; 4 °C overnight; normal rabbit IgG as control
[1] = biological target: Flag epitope-tagged human Smad4 (human) (UniProt Q13485); test: as above

Protein sequences, listed by entry. Tags and fused reporters are not part of them.
UniProt Q15796: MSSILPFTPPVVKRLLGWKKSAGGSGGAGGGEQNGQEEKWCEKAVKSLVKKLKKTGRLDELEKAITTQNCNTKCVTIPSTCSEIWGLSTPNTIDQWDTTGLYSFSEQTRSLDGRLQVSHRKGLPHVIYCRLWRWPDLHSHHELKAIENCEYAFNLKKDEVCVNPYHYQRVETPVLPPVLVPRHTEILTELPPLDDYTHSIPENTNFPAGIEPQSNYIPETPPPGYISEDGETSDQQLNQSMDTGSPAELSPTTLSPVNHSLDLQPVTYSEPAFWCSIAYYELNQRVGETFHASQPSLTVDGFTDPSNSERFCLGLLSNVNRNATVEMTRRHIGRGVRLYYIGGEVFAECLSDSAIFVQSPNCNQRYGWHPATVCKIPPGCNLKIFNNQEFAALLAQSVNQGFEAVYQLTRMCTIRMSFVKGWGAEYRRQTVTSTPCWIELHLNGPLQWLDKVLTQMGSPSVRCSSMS
UniProt Q13485: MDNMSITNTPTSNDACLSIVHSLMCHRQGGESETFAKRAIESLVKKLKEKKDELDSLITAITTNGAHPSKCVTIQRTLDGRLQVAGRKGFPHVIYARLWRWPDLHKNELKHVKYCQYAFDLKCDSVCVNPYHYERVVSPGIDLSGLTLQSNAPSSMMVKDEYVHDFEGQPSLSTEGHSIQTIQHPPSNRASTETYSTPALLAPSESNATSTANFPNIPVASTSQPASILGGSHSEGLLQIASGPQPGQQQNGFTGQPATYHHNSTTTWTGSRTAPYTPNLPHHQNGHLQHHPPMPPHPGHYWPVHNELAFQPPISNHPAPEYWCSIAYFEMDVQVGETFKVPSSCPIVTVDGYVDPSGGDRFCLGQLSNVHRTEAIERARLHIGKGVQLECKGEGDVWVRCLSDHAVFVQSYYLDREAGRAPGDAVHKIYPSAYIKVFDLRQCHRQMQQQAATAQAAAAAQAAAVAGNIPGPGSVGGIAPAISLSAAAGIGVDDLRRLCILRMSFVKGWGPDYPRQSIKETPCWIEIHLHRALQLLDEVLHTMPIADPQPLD

Row | binding (Flag-Smad2) | binding [1] | Substance
1 | binds |  | Myc-Tbx2ΔC (from UniProt B7ZQY8) (domain or fragment)
2 | binds | binds | Myc-epitope-tagged Tbx2 (from UniProt B7ZQY8)
3 | binds |  | Myc-Tbx2R-A (from UniProt B7ZQY8)

— article PMC7257154
